Test results reported in patent publication US6440954B1, “Inhibition of vascular smooth muscle cell proliferation” (President and Fellows of Harvard College, priority 1997, dated 2002).
For at least one compound, name, drawing or mass did not settle the structure.

Test system: RASMCs
Assay: [3H]thymidine incorporation in RASMCs
Assay type: cell-based, rat
Settings: for effect on [3H]thymidine incorporation in RASMCs: quiescent RASMCs, 24 h incubation, FIG. 2a/2b
Procedure: RASMCs were harvested from the thoracic aortas of adult male Sprague-Dawley rats (200-250 g) by enzymatic dissociation as described (Tsai et al., Proc. Natl. Acad. Sci. USA 91, 6369-6373 (1994)). The cells were grown in DMEM supplemented with 10% FCS, penicillin (100 U/ml), streptomycin (100 μg/ml), glutamine ([…]), and 25 mM Hepes (pH 7.4) in a humidified incubator (37° C., 5% CO2). HASMCs (Clonetics, San Diego) were grown in M199 medium (GIBCO BRL, Grand Island, N.Y.) supplemented with 20% FCS, penicillin (100 U/ml), streptomycin (100 μg/ml), and 25 mM Hepes (pH 7.4). Cells from passages 5-9 were used. RASMCs and HASMCs were cultured in 24-well plates containing an appropriate growth medium (DMEM plus 10% FCS for RASMCs, and M199 plus 20% FCS for HASMCs). After the cells had grown to 70-80% confluence, they were rendered quiescent by incubation for 72 h in DMEM (for RASMCs) or M199 (for HASMCs) containing 0.4% charcoal/dextran-treated FCS (FIGS. 2a and 2d) or 0.4% calf serum (CS) (FIGS. 2b and 2c). Phenol red-free DMEM was used in the experiments with estradiol (FIG. 2a). […] After incubation, the cells were washed with Dulbecco's PBS, fixed in cold 10% TCA for at least 2 h, and then washed with 95% ethanol. Incorporated [^3H]thymidine was extracted in 0.2 N NaOH and measured in a liquid scintillation counter.

Compound	antagonism of progesterone-induced inhibition of [3H]thymidine incorporation (RASMCs preincubated with RU486 1 h, then progesterone 24 h, FIG. 2b)	effect on [3H]thymidine incorporation in RASMCs
CC#C[C@]1(O)CC[C@H]2[C@@H]3CCC4=CC(=O)CCC4=C3[C@@H](c3ccc(N(C)C)cc3)C[C@@]21C [RU486]	antagonized	little effect
C[C@]12CC[C@@H]3c4ccc(O)cc4CC[C@H]3[C@@H]1CC[C@@H]2O [estradiol]		but not
